Assay results taken from patent US20200165600.
Where a protein sequence is shown, tags need not be part of it. For at least one entry, the source does not settle the construct or the ends of the probe.

Tests used:
IntI1 integron integrase [1] = biological target: T1, IntI1 integron integrase (UniProt P62590); test: activity in cells; conditions: attI1 x attC suicidal conjugation; recombines; protein in cells; folded or branched DNA
T1 sequence (looked up, limits assumed): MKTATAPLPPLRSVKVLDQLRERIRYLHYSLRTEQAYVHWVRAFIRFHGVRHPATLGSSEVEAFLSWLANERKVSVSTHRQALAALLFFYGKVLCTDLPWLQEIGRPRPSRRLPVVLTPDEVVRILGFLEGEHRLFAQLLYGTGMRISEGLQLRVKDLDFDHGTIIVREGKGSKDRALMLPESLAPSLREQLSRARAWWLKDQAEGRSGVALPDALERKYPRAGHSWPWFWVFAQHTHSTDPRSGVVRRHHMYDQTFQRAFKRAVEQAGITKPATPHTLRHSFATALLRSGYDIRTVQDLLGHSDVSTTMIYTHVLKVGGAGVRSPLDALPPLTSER

IntI1 integron integrase [2] = biological target: T1, IntI1 integron integrase; test: EMSA; conditions: four shifted bands; poly[d(I-C)], Hepes pH 7.7, 60 mM KCl, 30 C; purified recombinant protein; protein details: MBP tag; label: 32P; single-stranded DNA

Question: “GAATTCTTTCTAACTCCGCCAACCCGGAGAAGCGTGGCCCACGCTCTCCGGTTGATATTGTTAGAAAGGATCC [attCr4]” was tested. Which “activity on this sequence” value (IntI1 integron integrase [1]) did it give?
Answer: Its value is “active”.

Question: “GAATTCCTGCCTAACGTCGTCTGCAGCGTCACACTGTACGCATGTGGACGCTCAGTCAAATGTTAGGCAGGGATCC [attCr10]” was tested. Which “activity on this sequence” value (IntI1 integron integrase [1]) did it give?
Answer: Its value is “active”.

Question: “GAATTCTTACACAACGGCCCATACTGAATCAGAAATCCAAACATTCGATTCATATTCGACGTTGTGTAAGGATCC [attCr11]” was tested. Which “activity on this sequence” value (IntI1 integron integrase [1]) did it give?
Answer: Its value is “active”.

Question: With “GAATTCAGGGTAACGCTACGCGCAGTGCCAAGCATCTATGATGCTGGCACTCGCCTCTTGTTACCCTGGATCC [attCr2]” as the sequence, how does the “activity on this sequence” value (IntI1 integron integrase [1]) read?
Answer: Its value is “active”.

Question: For “GAATTCACGACGAACTCAGACGACAGATATAACCTAAAAGTTCGGTATATCTTCGGGCCGTGTTCGTCGTGGATCC [attCr9]”, which “activity on this sequence” value (IntI1 integron integrase [1]) is on record?
Answer: Its value is “active”.

Question: How did the “activity on this sequence” value (IntI1 integron integrase [1]) turn out when “GAATTCATCTTAACTGCTTACACCCGGGCAACCTTTCCTAAAGGTGCCCGGTGTGGCTTGTTAAGATGGATCC [attCr6]” was run?
Answer: The value was “active”.

Question: For “GAATTCATTATAACGGAGGTTACCCATGGATTCGAGTTCCTCGAACCATGGTAAAGAGTGTTATAATGGATCC [attCr0]”, which “activity on this sequence” value (IntI1 integron integrase [1]) is on record?
Answer: Its value is “active”.

Question: “GAATTCTCTCTAACCTGCTACTCTATAGTACAGTAAGGTTTACTGACTATAAGTCGGGTGTTAGAGAGGATCC [attCr3]” was tested. Which “activity on this sequence” value (IntI1 integron integrase [1]) did it give?
Answer: The value was “active”.

Question: Does “GGATCCGTCTAACGCTTGAATTAAGCCGCGCCGCGAAGCGGCGTCGGCTTGAATGAATTGTTAGACGAATTCCACCCACCAATGCTCATGTTATCA [attCaadA7 bottom strand]” bind (IntI1 integron integrase [2])?
Answer: Result: binds

Question: Which “activity on this sequence” value (IntI1 integron integrase [1]) does the source give for “GAATTCATGGCTAACTAGTAATACTCAGGGAATCGATCACGGTGATCCCTGATATGCTCTGTTAGCCATGGATCC [attCr12]” here?
Answer: The value was “active”.

Question: How did the “activity on this sequence” value (IntI1 integron integrase [1]) turn out when “GAATTCCGTCTAACTCATCGCGCGTGAATAAACCTCTTGGAGGTTATTCACCGCAAAATGTTAGACGGGATCC [attCr1]” was run?
Answer: Its value is “active”.

Question: “GAATTCGCCACTAACAGTTTCTACGATTTGAATGTCGATATCGCATCAAATCTAGCGGCTCGTTAGTGGCGGATCC [attCr13]” was tested. Which “activity on this sequence” value (IntI1 integron integrase [1]) did it give?
Answer: The value was “active”.

Question: “GAATTCGCCTTAACAATACAGGCTATGTTATTTGGTCGGACCAAAAACATACCTAGTAGGTTAAGGCGGATCC [attCr5]” was tested. Which “activity on this sequence” value (IntI1 integron integrase [1]) did it give?
Answer: The value was “active”.

Question: How did the “activity on this sequence” value (IntI1 integron integrase [1]) turn out when “GAATTCTCGGCTAACCGCTCAGACTATCGCACTACCTGGTTTCTAGGCGATATCTTCGGAGTTAGCCGAGGATCC [attCr7]” was run?
Answer: The value was “active”.

Question: Which “activity on this sequence” value (IntI1 integron integrase [1]) does the source give for “GAATTCTAGGCTAACAGAACGGTCAATATGAGGGAGGCTGGATCCCCATATTACCTCGGTGTTAGCCTAGGATCC [attCr8]” here?
Answer: The value was “active”.
